Measured values: PubChem BioAssay AID2242 (National Center for Advancing Translational Sciences (NCATS), 2010)
Screen size: about 200,000 compounds; about 720 (0.36%) were called active. This list was built around the results that the source calls inconclusive (neither active nor inactive); the mix of calls is not that of the screen. The call rests on the fitted dose curve; in most records, active means well fitted activation curve with a large enough effect; inconclusive means small, poorly fitted or top-dose-only effect, or effect the other way, or another doubt; inactive means flat fitted curve, though single readings scatter. A potency beside an inconclusive call is a rough fit, not a confirmed value.

The compounds below were run against Lysosomal alpha-glucosidase (Homo sapiens) (UniProt P10253) (assay: qHTS Assay for Activators of Human alpha-Glucosidase as a Potential Chaperone Treatment of Pompe Disease). Details: purified enzyme, 4-MU-alpha-glucoside fluorescence, 20 min.
From the text: NIH Chemical Genomics Center [NCGC] NIH Molecular Libraries Probe Production centers Network [MLPCN] MLPCN Grant: 1R03MH084841-01 Assay Submitter (PI): Wei Zheng NCGC Assay Overview: Alpha-glucosidase is responsible for hydrolysis of terminal, non-reducing 1,4-linked alpha-D-glucose residues with release of alpha-D-glucose. It is a lysosomal hydrolase that is required for the degradation of a small percentage (1-3%) of cellular glycogen in human. Deficiency of this enzyme results in glycogen-storage disease type II (GSDII), also referred to as Pompe disease, an autosomal recessive disorder. Structurally normal glycogen is accumulated in lysosomes and cytoplasm in affected patients, primarily in muscle tissues. Excessive glycogen storage within lysosomes may interrupt normal functioning of other organelles and leads to cellular injury. In turn, this leads to enlargement and dysfunction of the entire organ involved (eg, cardiomyopathy and muscle weakness). It has reported that the improper folding and trafficking of alpha-glucosidase resulting from the genetic mutations may account for a significant number of Pompe patients. […] We optimized this alpha-glucosidase assay in 1536-well plate format for identifying the novel small molecule inhibitors with the structures other than the sugar analogs in order to develop the new pharmacological chaperones, but are also able to detect potential activators. […]
NCGC Assay Protocol Summary: This is a fluorogenic enzyme assay with 4-methylumbelliferyl-alpha-D-[…] as the substrate and human alpha-glucosidase as the enzyme preparation. […] 4-methyllumbelliferone, can be excited at 365 nm and emits at 440 nm which can be detected by a standard fluorescence plate reader. […] In the AC50 values were determined from concentration-response data modeled with the standard Hill equation. […] (5) Add 2 ul stop solution (1M NaOH and 1M Glycine mixture, pH 10) (6) Detect the assay plate in a ViewLux plate reader (PerkinElmer) with Ex=365 nm and Em=440nm. […]
Further: nearly all actives have a fitted effect of over 80% in size.
Potency means the concentration at half of the fitted maximal effect.

Q: For `Cc1cc(/C=C2\C(=O)NC(=O)N(c3ccc(F)cc3)C2=O)c(C)n1-c1ccc(C(=O)O)cc1`, which Potency is on record?
A: inconclusive: 28.2 µM [inhibitor, partial curve]

Q: With `O[C@H]1[C@H](O)[C@@H](O)CN2CC[C@H](O)[C@H]12` as the compound, how does the Potency read?
A: inconclusive: 11.2 µM [inhibitor, partial curve]

Q: For `Cc1cc(/C=C2/C(=O)NC(=O)N(Cc3ccco3)C2=O)c(C)n1-c1ccc(C(=O)O)cc1`, which Potency is on record?
A: inconclusive: 31.6 µM [inhibitor, partial curve]
